Results are given in words; binding and its absence hold for the method and conditions named. Binding seen in cells or lysates may run through a third protein. Some entries that bind do so weakly or less than the wild type.

Sequences of proteins named here, by UniProt entry; tags and fusion partners are left off.
UniProt Q8CFN5: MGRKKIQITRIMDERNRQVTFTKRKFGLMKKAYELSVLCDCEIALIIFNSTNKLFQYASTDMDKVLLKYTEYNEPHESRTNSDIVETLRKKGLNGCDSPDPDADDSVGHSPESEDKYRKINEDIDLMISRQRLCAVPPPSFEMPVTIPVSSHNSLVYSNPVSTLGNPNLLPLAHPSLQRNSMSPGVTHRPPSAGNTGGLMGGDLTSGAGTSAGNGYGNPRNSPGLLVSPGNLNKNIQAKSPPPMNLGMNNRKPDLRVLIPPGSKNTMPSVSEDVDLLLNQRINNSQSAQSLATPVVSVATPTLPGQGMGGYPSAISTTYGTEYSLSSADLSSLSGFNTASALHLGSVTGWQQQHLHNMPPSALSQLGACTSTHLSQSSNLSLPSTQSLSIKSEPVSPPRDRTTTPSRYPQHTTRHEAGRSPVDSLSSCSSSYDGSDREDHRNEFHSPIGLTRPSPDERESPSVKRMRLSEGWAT
UniProt O35730: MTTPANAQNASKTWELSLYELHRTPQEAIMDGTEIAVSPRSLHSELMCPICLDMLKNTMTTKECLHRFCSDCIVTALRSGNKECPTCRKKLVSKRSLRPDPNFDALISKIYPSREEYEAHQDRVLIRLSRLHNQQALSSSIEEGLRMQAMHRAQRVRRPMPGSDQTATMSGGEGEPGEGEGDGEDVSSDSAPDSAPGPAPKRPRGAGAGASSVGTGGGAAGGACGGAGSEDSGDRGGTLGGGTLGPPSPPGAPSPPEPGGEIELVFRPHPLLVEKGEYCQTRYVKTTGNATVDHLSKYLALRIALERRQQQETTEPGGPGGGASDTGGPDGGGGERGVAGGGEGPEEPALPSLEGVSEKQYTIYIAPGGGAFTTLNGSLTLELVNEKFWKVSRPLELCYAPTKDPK
UniProt Q9JLQ4: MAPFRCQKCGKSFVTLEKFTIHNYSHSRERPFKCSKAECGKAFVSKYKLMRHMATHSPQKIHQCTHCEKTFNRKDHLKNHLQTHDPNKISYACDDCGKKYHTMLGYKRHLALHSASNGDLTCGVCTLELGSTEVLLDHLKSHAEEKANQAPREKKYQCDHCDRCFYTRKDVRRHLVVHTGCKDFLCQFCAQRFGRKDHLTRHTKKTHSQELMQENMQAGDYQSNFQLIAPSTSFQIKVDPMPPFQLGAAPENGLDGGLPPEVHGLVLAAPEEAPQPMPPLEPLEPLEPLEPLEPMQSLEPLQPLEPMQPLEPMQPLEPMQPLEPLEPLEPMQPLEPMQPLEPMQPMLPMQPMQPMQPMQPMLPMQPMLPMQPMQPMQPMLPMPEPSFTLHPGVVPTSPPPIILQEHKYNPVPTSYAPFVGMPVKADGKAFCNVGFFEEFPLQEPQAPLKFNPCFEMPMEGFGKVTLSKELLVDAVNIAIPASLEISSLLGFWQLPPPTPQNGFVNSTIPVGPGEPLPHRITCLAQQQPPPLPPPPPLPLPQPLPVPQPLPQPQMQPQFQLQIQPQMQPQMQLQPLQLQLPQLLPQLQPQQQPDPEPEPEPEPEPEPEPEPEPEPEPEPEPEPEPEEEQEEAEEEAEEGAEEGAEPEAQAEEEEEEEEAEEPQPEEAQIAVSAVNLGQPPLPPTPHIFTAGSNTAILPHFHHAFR
UniProt P42582: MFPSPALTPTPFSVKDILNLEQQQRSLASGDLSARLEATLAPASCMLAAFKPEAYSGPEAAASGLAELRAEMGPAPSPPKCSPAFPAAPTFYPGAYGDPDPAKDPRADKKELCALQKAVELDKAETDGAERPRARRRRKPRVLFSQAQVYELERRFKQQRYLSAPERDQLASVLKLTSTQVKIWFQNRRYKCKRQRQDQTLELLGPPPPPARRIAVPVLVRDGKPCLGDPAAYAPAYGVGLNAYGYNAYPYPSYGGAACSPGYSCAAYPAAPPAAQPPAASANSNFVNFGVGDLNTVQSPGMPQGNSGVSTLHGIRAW

The test addresses T1, RING1 and YY1 binding protein (RYBP) (UniProt Q8CCI5).
T1 sequence: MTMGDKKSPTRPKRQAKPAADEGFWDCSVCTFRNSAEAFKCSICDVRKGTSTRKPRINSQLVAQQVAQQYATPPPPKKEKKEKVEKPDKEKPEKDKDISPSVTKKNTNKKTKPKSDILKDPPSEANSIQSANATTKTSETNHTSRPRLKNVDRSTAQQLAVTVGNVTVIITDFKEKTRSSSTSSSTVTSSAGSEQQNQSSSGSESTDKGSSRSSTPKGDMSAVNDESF
In words: co-IP; HEK293 cells co-transfected with 5 ug FLAG construct and 5 ug pcDNA3.1-Rybp; pre-cleared whole cell lysate incubated overnight at 4 C with anti-RYBP antibody bound to Protein A-Sepharose beads; washed five times with 1X PBS; blot with anti-FLAG M2-HRP.
Turning to “MEF2C, FLAG-tagged (from UniProt Q8CFN5 1-474)”, the binding entry is “no binding”. In the case of “RING1, FLAG-tagged (from UniProt O35730 1-406)” it was “binds”; in that of “Pleiomorphic adenoma gene-like 1 (PLAGL1), FLAG-tagged (from UniProt Q9JLQ4 1-704)”, “no binding”.

Turning to “NK2 homeobox 5 (NKX2-5), FLAG-tagged (from UniProt P42582 1-318)”, the binding result is on record as “binds”.

The values are drawn from publication PMC9905990.
